# Assay results taken from publication PMC7819943, “Rice protein-binding microarrays: a tool to detect cis-acting elements near promoter regions in rice”.
# Amino acid sequences for entries named in this document (tags omitted).
# UniProt Q0JBA9, entry or part of it: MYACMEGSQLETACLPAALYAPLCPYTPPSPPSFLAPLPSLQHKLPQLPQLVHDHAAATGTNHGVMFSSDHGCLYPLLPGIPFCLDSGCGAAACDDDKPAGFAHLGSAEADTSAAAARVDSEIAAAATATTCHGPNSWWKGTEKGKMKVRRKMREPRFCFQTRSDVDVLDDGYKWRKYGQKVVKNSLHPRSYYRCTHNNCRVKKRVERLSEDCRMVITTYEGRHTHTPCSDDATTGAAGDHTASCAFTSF
# The list shows a part of the results.
# Molecular target: OsWRKY34 (Oryza sativa, UniProt Q0JBA9 1-250)
# Assay: protein-binding microarray (RPBM); PBS, 2% BSA, 51.3 ng/ul salmon testes DNA, 50 uM zinc acetate, 200 nM TF, 25 C, 1 h; high values mean tight binding
# Settings: protein: recombinant; tags: N-terminal polyhistidine and DsRed monomer fusion (pET32a); label: CyDye5-dUTP incorporated in the synthesized complementary strand; 3' TTTTT single-stranded linker to array surface; dsDNA, one strand shown
# In short: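 Binding signal is defined as the fluorescence intensity of each feature in arbitrary units, read on an Axon 4000B scanner. Transcription factors with N-terminal polyhistidine and DsRed fusions came from E. coli BL21-CodonPlus and were purified on Ni–NTA. They were incubated at 200 nM for 1 h at 25 °C on a custom Agilent array that had been made double-stranded with Cy5-dUTP, with 50 µM zinc acetate present, and the array was washed.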
row,Sequence,binding signal
1,GATCCTGCATCCAACACGGCATCATAATCATCAGTCATTCCGGAGTCACCTAGTGCAG,8880 fluorescence intensity (a.u.)
2,CTTTATGTACTACTTTTGTCATATACATTGCTGTTGTCCTCGGAGTCACCTAGTGCAG,11500 fluorescence intensity (a.u.)
3,CCATTCCATTCAACCACATCTGTTTCTTTAATTGCTGCGTCGGAGTCACCTAGTGCAG,9660 fluorescence intensity (a.u.)
4,ACTAAATTTATTTTTGCAGGTTCATATGGGGAAGTATATCCGGAGTCACCTAGTGCAG,8770 fluorescence intensity (a.u.)
5,AAATCCCTCTTGCCTCGTCTCCACTGCTAGAGTATATGGACGGAGTCACCTAGTGCAG,8070 fluorescence intensity (a.u.)
6,TTGTTTTTGTCAAATTTCATAATTTTGATCAATATTTATACGGAGTCACCTAGTGCAG,9300 fluorescence intensity (a.u.)
7,GGGTTCGTTTACATGTGCTAATTCTTGCTTTGAACAAGCTCGGAGTCACCTAGTGCAG,8400 fluorescence intensity (a.u.)
8,CCACCTTTTATTTTGCTTCCAAGTACCACGTCACCGCCATCGGAGTCACCTAGTGCAG,8500 fluorescence intensity (a.u.)
9,CCCTATCTTTCCCAACTCACCTCTCTCGTTTTCCACGCGCCGGAGTCACCTAGTGCAG,8790 fluorescence intensity (a.u.)
10,GGTGGTGTTCTTTTCTCTGGAGATTAAGATGAAGTTTTTTCGGAGTCACCTAGTGCAG,9280 fluorescence intensity (a.u.)
11,CATTAAGTATATTGTGTTCTTTTGTGTGAGTTCCCAATTCCGGAGTCACCTAGTGCAG,8400 fluorescence intensity (a.u.)
12,ACTTCTTCTGACATAATATCCTTCAACACAGTTACTGCCCCGGAGTCACCTAGTGCAG,8120 fluorescence intensity (a.u.)
13,TTTGATTGATTCATCGTTCTCTCATTTGACTTCATTGCTACGGAGTCACCTAGTGCAG,9120 fluorescence intensity (a.u.)
14,CTAGCTGACCACTCTACTATACACACACATATATACTTTTCGGAGTCACCTAGTGCAG,11800 fluorescence intensity (a.u.)
15,ACAATCCACATTTTTTTTTCATACTCCCTCCGTTTTTTTACGGAGTCACCTAGTGCAG,9200 fluorescence intensity (a.u.)
16,ACCGTGAACGACATGTTCCGGCCTGCCCACGAGTCCCGCACGGAGTCACCTAGTGCAG,8030 fluorescence intensity (a.u.)
17,ATATAGACCCATGTTTTTACCTCCATAACGGATTTATTTTCGGAGTCACCTAGTGCAG,11500 fluorescence intensity (a.u.)
18,ACACCTAACCTTGACGCGCATACACGTACACGTACGGCGCCGGAGTCACCTAGTGCAG,8810 fluorescence intensity (a.u.)
19,CGGCTGAGGGACGGGCGGGAGGAGGTGGTCGGGTACGGGGCGGAGTCACCTAGTGCAG,14700 fluorescence intensity (a.u.)
20,CAATTCTGAATTTATCTGCATGATTCTTTCTTGGCGGTACCGGAGTCACCTAGTGCAG,8840 fluorescence intensity (a.u.)
21,TTTTTCTATTTATTTTTCTACTACTTTACCAGCTCATCTACGGAGTCACCTAGTGCAG,8360 fluorescence intensity (a.u.)
22,CTATAACAGCTCGGTCTTTTGTTGCATTTGCGTGTACAGTCGGAGTCACCTAGTGCAG,10100 fluorescence intensity (a.u.)
23,ACAGGGCTTGGAATAGGTTGGTGTACAGGGCGGTAGCTTACGGAGTCACCTAGTGCAG,8670 fluorescence intensity (a.u.)

# A different layout for part of the listing above:
row	Sequence	binding signal
5	AAATCCCTCTTGCCTCGTCTCCACTGCTAGAGTATATGGACGGAGTCACCTAGTGCAG	8070 fluorescence intensity (a.u.)
23	ACAGGGCTTGGAATAGGTTGGTGTACAGGGCGGTAGCTTACGGAGTCACCTAGTGCAG	8670 fluorescence intensity (a.u.)
